# ± gives the standard deviation of the averaged measurements. The list shows a part of the results.
# By UniProt entry, the sequences of proteins in these tests, tags left out. Where a name states a change or a piece, a line headed by the entry shows the natural chain unless it says otherwise.
# UniProt O95714: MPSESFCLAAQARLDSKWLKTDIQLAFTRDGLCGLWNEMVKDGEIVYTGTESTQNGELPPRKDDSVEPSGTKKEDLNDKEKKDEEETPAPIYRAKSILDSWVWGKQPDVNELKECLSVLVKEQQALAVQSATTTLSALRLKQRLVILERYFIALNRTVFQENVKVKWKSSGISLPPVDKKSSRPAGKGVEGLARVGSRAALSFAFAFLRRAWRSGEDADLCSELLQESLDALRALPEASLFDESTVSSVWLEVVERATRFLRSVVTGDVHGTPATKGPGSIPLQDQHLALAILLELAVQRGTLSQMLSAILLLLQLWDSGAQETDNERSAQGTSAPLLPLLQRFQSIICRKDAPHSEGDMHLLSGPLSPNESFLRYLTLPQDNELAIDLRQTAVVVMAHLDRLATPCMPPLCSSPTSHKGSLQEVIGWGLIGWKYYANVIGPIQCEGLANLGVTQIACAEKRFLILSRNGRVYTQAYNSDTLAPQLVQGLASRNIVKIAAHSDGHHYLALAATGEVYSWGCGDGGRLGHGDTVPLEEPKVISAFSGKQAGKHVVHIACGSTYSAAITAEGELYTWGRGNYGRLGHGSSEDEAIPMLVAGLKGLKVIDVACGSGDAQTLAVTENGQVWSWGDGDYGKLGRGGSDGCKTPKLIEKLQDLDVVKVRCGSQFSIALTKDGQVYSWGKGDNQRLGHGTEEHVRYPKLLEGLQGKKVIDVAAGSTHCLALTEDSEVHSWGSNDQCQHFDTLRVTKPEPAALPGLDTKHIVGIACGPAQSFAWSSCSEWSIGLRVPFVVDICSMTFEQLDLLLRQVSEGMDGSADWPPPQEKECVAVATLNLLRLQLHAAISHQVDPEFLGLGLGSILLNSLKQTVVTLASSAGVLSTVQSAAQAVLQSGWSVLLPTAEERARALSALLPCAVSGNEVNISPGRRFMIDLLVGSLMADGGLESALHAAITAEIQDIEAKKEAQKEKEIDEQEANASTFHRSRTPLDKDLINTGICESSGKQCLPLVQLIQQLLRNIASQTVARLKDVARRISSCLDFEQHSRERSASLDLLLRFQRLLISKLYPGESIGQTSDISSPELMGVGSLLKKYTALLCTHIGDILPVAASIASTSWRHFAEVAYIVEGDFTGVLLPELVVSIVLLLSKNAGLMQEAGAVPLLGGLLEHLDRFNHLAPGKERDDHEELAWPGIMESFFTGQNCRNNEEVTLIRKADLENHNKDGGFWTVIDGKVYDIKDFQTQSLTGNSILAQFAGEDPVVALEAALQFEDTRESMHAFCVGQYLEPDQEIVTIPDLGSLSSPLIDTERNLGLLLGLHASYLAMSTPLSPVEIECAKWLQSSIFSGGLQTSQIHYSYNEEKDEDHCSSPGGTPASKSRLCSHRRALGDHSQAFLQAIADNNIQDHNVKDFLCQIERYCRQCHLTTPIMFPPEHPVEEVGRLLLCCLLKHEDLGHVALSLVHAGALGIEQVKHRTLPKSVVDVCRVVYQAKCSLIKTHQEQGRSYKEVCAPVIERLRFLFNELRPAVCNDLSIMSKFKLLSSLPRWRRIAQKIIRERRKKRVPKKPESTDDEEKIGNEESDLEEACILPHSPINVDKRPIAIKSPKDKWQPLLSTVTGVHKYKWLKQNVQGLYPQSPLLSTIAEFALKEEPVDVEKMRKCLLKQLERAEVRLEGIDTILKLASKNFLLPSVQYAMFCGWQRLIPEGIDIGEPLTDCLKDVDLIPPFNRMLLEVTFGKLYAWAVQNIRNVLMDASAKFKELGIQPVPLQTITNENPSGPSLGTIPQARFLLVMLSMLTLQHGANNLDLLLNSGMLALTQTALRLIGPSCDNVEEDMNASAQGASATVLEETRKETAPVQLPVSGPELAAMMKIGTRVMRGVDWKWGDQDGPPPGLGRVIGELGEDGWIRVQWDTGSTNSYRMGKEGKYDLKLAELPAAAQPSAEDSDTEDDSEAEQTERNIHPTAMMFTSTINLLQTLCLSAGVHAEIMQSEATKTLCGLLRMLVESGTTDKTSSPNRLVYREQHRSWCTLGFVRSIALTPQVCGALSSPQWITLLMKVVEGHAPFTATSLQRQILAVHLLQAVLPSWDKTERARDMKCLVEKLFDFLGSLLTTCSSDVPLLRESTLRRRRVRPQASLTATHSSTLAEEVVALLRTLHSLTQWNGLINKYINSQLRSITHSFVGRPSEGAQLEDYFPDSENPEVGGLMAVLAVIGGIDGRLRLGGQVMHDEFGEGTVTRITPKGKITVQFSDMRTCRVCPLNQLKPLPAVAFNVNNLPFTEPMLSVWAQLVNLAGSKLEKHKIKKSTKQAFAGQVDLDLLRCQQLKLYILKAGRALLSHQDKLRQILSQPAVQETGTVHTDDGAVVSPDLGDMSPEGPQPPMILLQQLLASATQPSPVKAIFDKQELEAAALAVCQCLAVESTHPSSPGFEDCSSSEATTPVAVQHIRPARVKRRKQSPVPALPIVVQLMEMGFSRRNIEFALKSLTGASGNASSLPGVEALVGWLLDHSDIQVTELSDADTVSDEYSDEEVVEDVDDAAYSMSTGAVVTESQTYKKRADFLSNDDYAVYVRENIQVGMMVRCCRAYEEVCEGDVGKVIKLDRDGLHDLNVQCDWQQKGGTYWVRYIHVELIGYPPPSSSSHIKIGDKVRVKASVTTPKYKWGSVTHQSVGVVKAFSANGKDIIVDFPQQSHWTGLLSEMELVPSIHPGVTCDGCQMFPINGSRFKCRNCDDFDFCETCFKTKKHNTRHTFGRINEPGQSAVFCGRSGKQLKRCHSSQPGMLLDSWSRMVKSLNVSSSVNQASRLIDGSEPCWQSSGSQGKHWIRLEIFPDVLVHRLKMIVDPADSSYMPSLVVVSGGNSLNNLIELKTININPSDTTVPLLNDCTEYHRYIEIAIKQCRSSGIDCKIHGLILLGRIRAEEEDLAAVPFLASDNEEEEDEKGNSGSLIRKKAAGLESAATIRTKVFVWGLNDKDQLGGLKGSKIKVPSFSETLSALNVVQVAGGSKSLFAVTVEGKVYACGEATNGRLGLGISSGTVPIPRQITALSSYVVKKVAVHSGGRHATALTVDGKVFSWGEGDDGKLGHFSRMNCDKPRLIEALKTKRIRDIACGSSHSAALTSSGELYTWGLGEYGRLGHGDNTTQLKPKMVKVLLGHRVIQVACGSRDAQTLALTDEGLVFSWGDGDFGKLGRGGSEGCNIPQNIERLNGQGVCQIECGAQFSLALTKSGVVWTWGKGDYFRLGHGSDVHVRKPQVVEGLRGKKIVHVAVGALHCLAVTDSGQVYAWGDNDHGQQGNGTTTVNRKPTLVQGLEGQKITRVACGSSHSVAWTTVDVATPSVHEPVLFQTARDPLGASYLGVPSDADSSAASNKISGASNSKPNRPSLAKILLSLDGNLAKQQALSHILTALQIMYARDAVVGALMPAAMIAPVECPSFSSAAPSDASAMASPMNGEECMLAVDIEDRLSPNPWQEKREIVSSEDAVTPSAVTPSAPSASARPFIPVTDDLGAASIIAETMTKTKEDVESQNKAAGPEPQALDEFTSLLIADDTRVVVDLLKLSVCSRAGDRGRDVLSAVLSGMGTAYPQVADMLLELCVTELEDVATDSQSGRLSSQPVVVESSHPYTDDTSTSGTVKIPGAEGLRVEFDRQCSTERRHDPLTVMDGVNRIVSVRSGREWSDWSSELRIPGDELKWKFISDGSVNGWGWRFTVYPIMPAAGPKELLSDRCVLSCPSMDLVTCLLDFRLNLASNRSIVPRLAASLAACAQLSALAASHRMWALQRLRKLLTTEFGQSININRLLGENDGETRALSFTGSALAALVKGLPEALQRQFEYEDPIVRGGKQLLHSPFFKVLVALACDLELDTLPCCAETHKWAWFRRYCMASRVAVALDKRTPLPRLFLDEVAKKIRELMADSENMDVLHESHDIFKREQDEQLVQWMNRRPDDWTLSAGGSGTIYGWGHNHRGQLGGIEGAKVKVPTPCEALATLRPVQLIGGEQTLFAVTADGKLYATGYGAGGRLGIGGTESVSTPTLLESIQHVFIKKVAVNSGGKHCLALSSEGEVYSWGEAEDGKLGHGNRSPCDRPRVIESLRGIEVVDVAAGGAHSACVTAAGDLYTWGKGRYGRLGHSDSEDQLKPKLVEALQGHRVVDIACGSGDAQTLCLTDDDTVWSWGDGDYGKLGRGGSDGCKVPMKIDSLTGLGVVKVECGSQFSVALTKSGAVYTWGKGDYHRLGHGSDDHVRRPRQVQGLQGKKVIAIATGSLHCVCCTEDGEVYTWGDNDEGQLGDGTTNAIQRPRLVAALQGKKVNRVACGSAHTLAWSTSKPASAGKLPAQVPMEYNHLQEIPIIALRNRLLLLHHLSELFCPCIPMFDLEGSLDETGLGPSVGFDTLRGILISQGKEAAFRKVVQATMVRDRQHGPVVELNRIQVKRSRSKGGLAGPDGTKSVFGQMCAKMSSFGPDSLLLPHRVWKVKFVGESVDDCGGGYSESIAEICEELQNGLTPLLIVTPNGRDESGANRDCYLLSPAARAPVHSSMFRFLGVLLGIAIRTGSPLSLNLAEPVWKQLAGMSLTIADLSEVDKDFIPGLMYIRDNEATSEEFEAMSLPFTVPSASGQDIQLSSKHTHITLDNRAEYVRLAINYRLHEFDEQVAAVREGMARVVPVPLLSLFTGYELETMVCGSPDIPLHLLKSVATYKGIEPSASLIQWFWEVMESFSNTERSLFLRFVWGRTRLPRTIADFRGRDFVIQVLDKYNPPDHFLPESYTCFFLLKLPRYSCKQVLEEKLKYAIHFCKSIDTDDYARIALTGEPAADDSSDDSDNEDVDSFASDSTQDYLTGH
# UniProt O75146: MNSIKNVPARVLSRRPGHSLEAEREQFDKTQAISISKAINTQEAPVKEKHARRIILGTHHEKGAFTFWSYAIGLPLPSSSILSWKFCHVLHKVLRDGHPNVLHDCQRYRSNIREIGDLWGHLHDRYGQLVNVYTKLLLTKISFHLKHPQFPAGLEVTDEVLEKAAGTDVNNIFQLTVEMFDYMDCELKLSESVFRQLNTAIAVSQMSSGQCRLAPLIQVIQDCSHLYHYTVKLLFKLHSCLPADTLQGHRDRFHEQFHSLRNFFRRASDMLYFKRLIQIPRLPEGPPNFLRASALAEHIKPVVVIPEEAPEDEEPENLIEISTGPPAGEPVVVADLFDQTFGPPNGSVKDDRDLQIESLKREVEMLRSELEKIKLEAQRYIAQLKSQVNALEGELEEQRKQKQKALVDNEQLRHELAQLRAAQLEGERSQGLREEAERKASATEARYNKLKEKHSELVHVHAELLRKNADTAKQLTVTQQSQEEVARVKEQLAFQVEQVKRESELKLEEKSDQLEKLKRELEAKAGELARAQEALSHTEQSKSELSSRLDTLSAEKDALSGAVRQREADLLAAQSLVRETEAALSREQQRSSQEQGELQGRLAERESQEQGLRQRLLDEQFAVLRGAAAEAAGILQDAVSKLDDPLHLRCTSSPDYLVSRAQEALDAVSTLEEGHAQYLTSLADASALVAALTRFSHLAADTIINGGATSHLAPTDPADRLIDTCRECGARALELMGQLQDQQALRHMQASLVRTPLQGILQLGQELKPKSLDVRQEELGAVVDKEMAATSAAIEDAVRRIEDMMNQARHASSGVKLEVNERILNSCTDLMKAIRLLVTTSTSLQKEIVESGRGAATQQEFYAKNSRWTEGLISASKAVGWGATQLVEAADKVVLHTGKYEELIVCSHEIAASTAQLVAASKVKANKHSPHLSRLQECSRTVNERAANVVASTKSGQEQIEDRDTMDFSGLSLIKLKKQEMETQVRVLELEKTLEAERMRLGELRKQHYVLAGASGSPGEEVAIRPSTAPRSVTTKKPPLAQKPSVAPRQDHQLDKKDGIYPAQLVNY
# UniProt O75695: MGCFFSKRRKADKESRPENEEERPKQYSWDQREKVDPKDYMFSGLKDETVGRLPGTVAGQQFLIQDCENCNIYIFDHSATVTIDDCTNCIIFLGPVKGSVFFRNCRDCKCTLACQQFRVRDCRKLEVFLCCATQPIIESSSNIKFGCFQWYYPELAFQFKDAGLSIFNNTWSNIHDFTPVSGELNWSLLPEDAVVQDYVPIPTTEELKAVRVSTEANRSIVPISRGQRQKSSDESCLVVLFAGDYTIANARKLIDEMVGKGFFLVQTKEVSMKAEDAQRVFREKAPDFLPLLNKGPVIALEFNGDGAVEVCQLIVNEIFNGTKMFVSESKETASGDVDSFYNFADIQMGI
# UniProt O75569: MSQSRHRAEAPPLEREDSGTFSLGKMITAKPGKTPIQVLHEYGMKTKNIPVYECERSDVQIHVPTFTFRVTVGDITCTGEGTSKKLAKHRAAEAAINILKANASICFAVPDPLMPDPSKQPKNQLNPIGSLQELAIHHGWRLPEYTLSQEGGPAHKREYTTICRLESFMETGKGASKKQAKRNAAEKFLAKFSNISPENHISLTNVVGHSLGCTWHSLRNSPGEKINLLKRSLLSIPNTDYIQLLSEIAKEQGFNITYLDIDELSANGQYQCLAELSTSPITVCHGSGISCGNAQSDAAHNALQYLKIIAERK
# Compound: Nc1nc2c(ncn2[C@@H]2O[C@H](COP(=O)(O)OP(=O)(O)OP(=O)(O)O)[C@@H](O)[C@H]2O)c(=O)[nH]1 [guanosine triphosphate]
# Test: NP40-soluble protein abundance relative to vehicle (solubility fold change) (ratio); higher = more soluble protein in presence of GTP
# In short: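 Jurkat crude lysate prepared with a Dounce homogeniser was treated at eight concentrations spanning 0.1 to 10 mM, 10 min at room temperature then 3 min at 37 °C. Solubilisation with 0.8% NP40 and benzonase and ultracentrifugation preceded TMT labelling of the supernatant for LC-MS/MS. Fold change against the detergent-processed vehicle was determined per replicate from vsn-normalised intensities, across three independent experiments.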
Target,NP40-soluble protein abundance (concentration: 0.1mM),NP40-soluble protein abundance (concentration: 0.5mM),NP40-soluble protein abundance (concentration: 1mM),NP40-soluble protein abundance (concentration: 2mM),NP40-soluble protein abundance (concentration: 4mM),NP40-soluble protein abundance (concentration: 6mM),NP40-soluble protein abundance (concentration: 8mM),NP40-soluble protein abundance (concentration: 10mM)
TFRC (UniProt P02786),0.964 ± 0.047,0.943 ± 0.045,0.941 ± 0.051,0.893 ± 0.041,0.908 ± 0.032,0.898 ± 0.039,0.899 ± 0.041,0.861 ± 0.043
O96007 and related entries (UniProt O96033+O96007),0.856 ± 0.057,0.867 ± 0.039,0.833 ± 0.066,0.882 ± 0.056,0.822 ± 0.041,0.855 ± 0.051,0.832 ± 0.1,0.833 ± 0.051
CDC123 (UniProt O75794),1.03 ± 0.016,1.02 ± 0.023,1.014 ± 0.0079,0.972 ± 0.033,1 ± 0.027,0.96 ± 0.053,1.01 ± 0.02,0.922 ± 0.034
DHFR (UniProt P00374),0.991 ± 0.071,1.01 ± 0.069,0.977 ± 0.07,0.929 ± 0.055,0.943 ± 0.093,0.929 ± 0.045,0.928 ± 0.079,0.909 ± 0.056
UniProt P00491,1 ± 0.11,0.966 ± 0.049,0.929 ± 0.084,0.912 ± 0.025,0.906 ± 0.022,0.887 ± 0.028,0.862 ± 0.063,0.847 ± 0.041
SSB (UniProt P05455),0.888 ± 0.058,0.918 ± 0.073,0.904 ± 0.073,0.869 ± 0.093,0.835 ± 0.083,0.882 ± 0.086,0.866 ± 0.073,0.879 ± 0.07
RPN1 (UniProt P04843),0.931 ± 0.027,0.984 ± 0.034,0.931 ± 0.032,0.924 ± 0.016,0.899 ± 0.018,0.929 ± 0.023,0.897 ± 0.032,0.894 ± 0.033
HERC2 (UniProt O95714),0.968 ± 0.087,0.996 ± 0.048,0.887 ± 0.14,0.904 ± 0.15,0.851 ± 0.18,0.899 ± 0.068,0.852 ± 0.095,0.815 ± 0.036
UniProt O75475 and related entries,1.01 ± 0.064,1.02 ± 0.064,1.07 ± 0.09,1.08 ± 0.093,1.18 ± 0.098,1.17 ± 0.098,1.26 ± 0.12,1.22 ± 0.12
ROCK2 (UniProt O75116),0.975 ± 0.042,0.984 ± 0.065,0.969 ± 0.052,0.96 ± 0.095,0.956 ± 0.077,0.947 ± 0.071,0.977 ± 0.06,0.979 ± 0.078
UniProt O94903,0.972 ± 0.066,0.912 ± 0.061,0.949 ± 0.073,0.899 ± 0.096,0.892 ± 0.086,0.874 ± 0.081,0.902 ± 0.069,0.897 ± 0.078
ENDOD1 (UniProt O94919),0.977 ± 0.016,0.985 ± 0.01,0.965 ± 0.026,0.936 ± 0.041,0.934 ± 0.037,0.941 ± 0.062,0.937 ± 0.044,0.921 ± 0.03
HIP1R (UniProt O75146),0.994 ± 0.025,1.03 ± 0.023,1.02 ± 0.047,1.07 ± 0.069,1.07 ± 0.056,1.13 ± 0.046,1.158 ± 0.0077,1.16 ± 0.039
UniProt P04406 and related entries,0.885 ± 0.094,0.936 ± 0.094,0.863 ± 0.1,0.89 ± 0.074,0.836 ± 0.09,0.865 ± 0.076,0.853 ± 0.085,0.846 ± 0.079
TIPRL (UniProt O75663),0.988 ± 0.076,0.99 ± 0.026,0.926 ± 0.077,0.886 ± 0.081,0.885 ± 0.097,0.883 ± 0.079,0.88 ± 0.11,0.842 ± 0.11
UniProt P00390 and related entries,0.962 ± 0.035,1 ± 0.042,0.895 ± 0.028,0.895 ± 0.06,0.849 ± 0.05,0.897 ± 0.044,0.845 ± 0.043,0.842 ± 0.072
UniProt O96005 and related entries,1.05 ± 0.12,0.982 ± 0.062,1.01 ± 0.078,0.969 ± 0.044,0.949 ± 0.036,0.951 ± 0.029,0.947 ± 0.029,0.899 ± 0.017
RP2 (UniProt O75695),1.04 ± 0.013,1.01 ± 0.011,0.976 ± 0.015,0.958 ± 0.055,0.943 ± 0.084,0.927 ± 0.051,0.925 ± 0.045,0.914 ± 0.091
STAM2 (UniProt O75886),0.923 ± 0.067,0.914 ± 0.076,0.938 ± 0.11,0.899 ± 0.11,0.877 ± 0.087,0.876 ± 0.082,0.909 ± 0.073,0.909 ± 0.11
ZBED4 (UniProt O75132),1.02 ± 0.043,1.01 ± 0.075,1.01 ± 0.088,0.99 ± 0.018,0.981 ± 0.058,0.954 ± 0.024,0.998 ± 0.059,0.993 ± 0.015
UniProt P01116-2,0.974 ± 0.17,0.869 ± 0.12,0.866 ± 0.17,0.875 ± 0.13,0.908 ± 0.14,0.815 ± 0.097,0.825 ± 0.12,0.861 ± 0.14
KATNA1 (UniProt O75449),1.05 ± 0.054,1.03 ± 0.018,1.03 ± 0.039,0.981 ± 0.041,0.969 ± 0.079,0.967 ± 0.055,1.01 ± 0.023,0.946 ± 0.02
UniProt O75592 and related entries,1.09 ± 0.0058,1.19 ± 0.16,1.24 ± 0.062,1.24 ± 0.16,1.47 ± 0.52,1.17 ± 0.38,1.35 ± 0.45,1.34 ± 0.38
UniProt O75569 and related entries,0.981 ± 0.077,1.03 ± 0.09,0.964 ± 0.046,1.01 ± 0.055,1.05 ± 0.031,1.13 ± 0.039,1.14 ± 0.042,1.22 ± 0.033

# Reprinted at random: 2 records from the list
Target,NP40-soluble protein abundance (concentration: 0.1mM),NP40-soluble protein abundance (concentration: 0.5mM),NP40-soluble protein abundance (concentration: 1mM),NP40-soluble protein abundance (concentration: 2mM),NP40-soluble protein abundance (concentration: 4mM),NP40-soluble protein abundance (concentration: 6mM),NP40-soluble protein abundance (concentration: 8mM),NP40-soluble protein abundance (concentration: 10mM)
HIP1R (UniProt O75146),0.994 ± 0.025,1.03 ± 0.023,1.02 ± 0.047,1.07 ± 0.069,1.07 ± 0.056,1.13 ± 0.046,1.158 ± 0.0077,1.16 ± 0.039
UniProt O75475 and related entries,1.01 ± 0.064,1.02 ± 0.064,1.07 ± 0.09,1.08 ± 0.093,1.18 ± 0.098,1.17 ± 0.098,1.26 ± 0.12,1.22 ± 0.12
